Results published in patent US20260315446A1, “ANTIFUNGAL COMPOUNDS AND USES THEREOF” (priority 2023, published 2026).
Like-named read-outs stand apart in the source and are kept apart here.

System: C. neoformans growth versus IL-2 in murine T cells
Experiment: Therapeutic index score (immunosuppressive fold change to antifungal fold change relative to FK506)
Design: species or system Cryptococcus neoformans; mouse
From the text: To assess the therapeutic potential for these compounds, it was important to develop an approach to score and rank them based on antifungal and immunosuppressive activities. The therapeutic index score (TIscore) is a ratio of the immunosuppressive fold change to the antifungal fold change, with all values relative to the baseline FK506 activity (FIG. 6B). A TIscore of >1.0 indicates an increase in fungal specificity because the fold change of the immunosuppressive reduction is greater than the antifungal activity reduction. As an example, JH-FK-05 is 20-fold reduced for antifungal activity but about 180-fold reduced for immunosuppression. Therefore, the TIscore of JH-FK-05 is 9.1 (TIscore=182/20). The top two analogs were JH-FK-02 (TIscore=9.7) and JH-FK-05 (TIscore=9.1). Due to the similar TIscore, JH-FK-05 was prioritized to advance to animal trials on the merit of more pronounced antifungal activity compared to JH-FK-02.
Based on the in vitro fungal and mammalian calcineurin inhibition data, the panel of FK520 analogs was assessed and ranked. Therapeutic index (TI) scores were used to quantify the effects of structural modification on the compounds (Table 8). Therapeutic index scores were calculated for each analog as the ratio of relative change in immunosuppressive and antifungal activities compared to FK506 as previously utilized (see, I-Toy M J, et at. 2022. mBio 13:e0104922). This ratio of therapeutic benefit and host toxicity, or fungal and mammalian calcineurin inhibition, allowed us to quantify and rank these analogs. […] This is the greatest TI found within the library and allowed us to identify JH-FK-08 as a lead candidate for an in vivo study. Tolerability of JH-FK-08 was assessed by monitoring animal responses to drug dosing across 14 days, including changes in weight, fur condition, and behavior. A maximum dose of 40 mg/kg was tested in once a day dosing, and due to solubility limitations, the tolerability of JH-FK-08 at 60 and 80 mg/kg total daily doses was assessed by dosing two equal doses per day (FIG. 14). […] It should be noted that analogs JH-FK-12 and JH-FK-23 are also promising candidates with respective Tis of 24.7 and 24.5.

[1] = Table 13, Example 4, FK506 = 1.0
[2] = Example 3, C. neoformans H99, FK506 = 1.0

CC[C@@H]1/C=C(\C)C[C@H](C)C[C@H](OC)[C@H]2O[C@@](O)(C(=O)C(=O)N3CCCC[C@H]3C(=O)O[C@H](/C(C)=C/[C@@H]3CC[C@@H](O)[C@H](OC)C3)[C@H](C)[C@@H](O)C/C1=N/NC(C)=O)[C@H](C)C[C@@H]2OC [JH-FK-05]
therapeutic index score (TIscore) (Example 1, C. neoformans MIC and IL-2 IC50, FK506 = 1.0): 9.1 | Therapeutic Index Score [1]: 9.1

CC[C@@H]1/C=C(\C)C[C@H](C)C[C@H](OC)[C@H]2O[C@@](O)(C(=O)C(=O)N3CCCC[C@H]3C(=O)O[C@H](/C(C)=C/C3CC[C@@H](O)[C@H](OC)C3)[C@H](C)[C@@H](O)C/C1=N/NC(=O)OC)[C@H](C)C[C@@H]2OC (stereo partly drawn) [JH-FK-08]
Therapeutic index [2]: 29.6 | TIscore (Example 4 discussion): 15.5

CC[C@@H]1/C=C(\C)C[C@H](C)C[C@H](OC)[C@H]2O[C@@](O)(C(=O)C(=O)N3CCCC[C@H]3C(=O)O[C@H](/C(C)=C/[C@@H]3CC[C@@H](O)[C@H](OC)C3)[C@H](C)[C@@H](O)CC1=O)[C@H](C)C[C@@H]2OC [FK520, reference compound]
Therapeutic Index Score: 4.4 | Therapeutic index: 3.3

CC[C@@H]1/C=C(\C)C[C@H](C)C[C@H](OC)[C@H]2O[C@@](O)(C(=O)C(=O)N3CCCC[C@H]3C(=O)O[C@H](/C(C)=C/C3CC[C@@H](O)[C@H](OC)C3)[C@H](C)[C@@H](O)C/C1=N/NS(=O)(=O)c1ccc(C)cc1)[C@H](C)C[C@@H]2OC (stereo partly drawn) [JH-FK-13]
Therapeutic index [2]: Undefined

CC[C@@H]1/C=C(\C)C(O)[C@H](C)C[C@H](OC)[C@H]2O[C@@](O)(C(=O)C(=O)N3CCCC[C@H]3C(=O)O[C@H](/C(C)=C/[C@@H]3CC[C@@H](O)[C@H](OC)C3)[C@H](C)[C@@H](O)CC1=O)[C@H](C)C[C@@H]2OC (single isomer, unassigned) [JH-FK-11]
Therapeutic Index Score (Table 12, Example 4, FK506 = 1.0): 11.8 | Therapeutic Index Score [1]: 11.8
